The source of these data is publication PMC12120744.

Amino acid sequences for entries named in this document (tags omitted). Residues count along the entry.
UniProt P01106, residues 16-454: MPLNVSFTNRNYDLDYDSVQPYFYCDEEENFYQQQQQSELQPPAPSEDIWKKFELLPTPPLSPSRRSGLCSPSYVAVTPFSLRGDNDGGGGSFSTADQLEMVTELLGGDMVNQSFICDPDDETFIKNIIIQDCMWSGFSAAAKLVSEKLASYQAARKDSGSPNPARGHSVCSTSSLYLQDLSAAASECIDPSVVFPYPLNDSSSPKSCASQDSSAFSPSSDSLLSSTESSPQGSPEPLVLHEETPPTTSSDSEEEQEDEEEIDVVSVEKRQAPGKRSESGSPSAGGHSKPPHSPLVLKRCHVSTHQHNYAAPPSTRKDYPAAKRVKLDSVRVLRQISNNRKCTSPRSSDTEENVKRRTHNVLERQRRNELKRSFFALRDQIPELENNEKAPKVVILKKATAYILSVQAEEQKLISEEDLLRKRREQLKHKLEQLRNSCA

These are yes or no findings as the source states them, for the method shown. In cells and extracts the contact can be indirect. A yes stands for co-enrichment or nearness to the bait. Other partners may have been found. Where a sequence is shown, tags or fusion partners need not be part of it.

This assay concerns the target T1, Flag-RNF112 (overexpressed in T24 cells) (UniProt Q9ULX5).
T1 sequence: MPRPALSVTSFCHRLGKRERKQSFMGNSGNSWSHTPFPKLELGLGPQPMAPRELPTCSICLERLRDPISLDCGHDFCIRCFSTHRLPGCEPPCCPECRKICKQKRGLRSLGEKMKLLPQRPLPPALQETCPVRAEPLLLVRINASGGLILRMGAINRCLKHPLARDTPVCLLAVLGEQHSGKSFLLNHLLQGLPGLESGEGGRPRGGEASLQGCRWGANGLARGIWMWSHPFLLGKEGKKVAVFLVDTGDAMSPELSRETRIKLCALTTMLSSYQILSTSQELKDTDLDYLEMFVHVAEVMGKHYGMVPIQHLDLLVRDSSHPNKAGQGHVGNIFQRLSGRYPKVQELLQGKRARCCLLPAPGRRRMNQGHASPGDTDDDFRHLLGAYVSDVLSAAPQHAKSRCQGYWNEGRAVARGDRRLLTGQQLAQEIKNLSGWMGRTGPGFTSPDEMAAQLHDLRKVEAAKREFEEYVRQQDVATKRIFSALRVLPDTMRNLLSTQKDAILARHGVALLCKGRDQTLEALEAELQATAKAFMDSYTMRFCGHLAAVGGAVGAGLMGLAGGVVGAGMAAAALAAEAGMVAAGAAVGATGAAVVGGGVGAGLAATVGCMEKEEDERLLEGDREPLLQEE
In words: affinity purification with mass spectrometry; Flag-RNF112 overexpressed in T24 cells for two days; IP, SDS-PAGE, silver staining, mass spectrometry.

As for “c-Myc (endogenous, T24 cells) (from UniProt P01106-1 1-439)”, the binding result is reported as “binds”.
